Laboratory results: patent CN110003338A
Results are given in words; binding and its absence hold for the method and conditions named. Some entries that bind do so weakly or less than the wild type. Blank lines part the entries; values can stand above or below the binder they belong to.

Target: T1, 人OX40 (soluble antigen in the Fortebio assay) (human) (UniProt P43489)
T1 sequence (looked up): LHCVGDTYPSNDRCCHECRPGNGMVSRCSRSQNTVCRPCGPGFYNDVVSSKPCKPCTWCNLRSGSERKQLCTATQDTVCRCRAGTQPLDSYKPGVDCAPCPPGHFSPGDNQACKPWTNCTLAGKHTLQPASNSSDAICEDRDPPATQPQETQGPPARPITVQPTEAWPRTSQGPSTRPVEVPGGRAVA
Assay: BLI (Fortebio), antibody captured on ProA sensor, human OX40 at 400 and 200 nM

- binding: binds
B1: 抗OX40单克隆抗体6A6 (antibody, V domains shown)
VH: EVQLQQSGPELVKPGASVKISCKASGYSFTGYYMNWVKQSPEKSLEWIGEINPSTGGTTYNQKFKAKATLTVDKSSSTAYMQLKSLTSEDSAVYYCARSGLPYYDVDYWGQGTTLTVSS
VL: DIQMTQSPSSLSASLGERVSLTCRASQEISGYLSWLHQKPDGTIKRLIYAASTLDSGVPKRFSGSRSGSDYSLTISSLESEDFADYYCLQYASYPLTFGAGTNLELK

- binding: binds
B2: 抗OX40单克隆抗体4F2 (antibody, V domains shown)
VH: DVQLQESGPGLVKPSQSLSLTCSVTGYSITSGYNWNWIRQFPGNKLEWMGYISYDGSNNYNPSLKNRISITRDTSKNQFFLKLNSVTTEDTATYYCARQGSSGHFYYAMDYWGQGTSVTVSS
VL: DIVMTQAHKFMSTSVGDRVSITCKASQDVSSAVAWYQQKPGQSPKLLIYWASIRHTGVPDRFTGSGSGTDYTLTISSVQAEDLALYYCQQHYSTPWTFGGGTKLEIK
